{
  "sequences": {"note": "Protein sequences, listed by entry. Tags and fused reporters are not part of them.", "UniProt Q0JBA9, entry or part of it": "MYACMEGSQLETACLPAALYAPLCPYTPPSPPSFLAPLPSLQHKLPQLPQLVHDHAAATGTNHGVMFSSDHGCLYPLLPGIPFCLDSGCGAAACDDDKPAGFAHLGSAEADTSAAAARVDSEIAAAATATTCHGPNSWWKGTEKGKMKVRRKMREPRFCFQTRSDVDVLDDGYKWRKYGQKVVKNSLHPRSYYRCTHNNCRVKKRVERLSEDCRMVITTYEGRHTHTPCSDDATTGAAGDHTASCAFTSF"},
  "source": "paper PMC7819943",
  "about": "“Rice protein-binding microarrays: a tool to detect cis-acting elements near promoter regions in rice”",
  "note": "Some of the results follow.",
  "data": [
    {"target": "OsWRKY34 (Oryza sativa, UniProt Q0JBA9 1-250)", "assay": "protein-binding microarray (RPBM); PBS, 2% BSA, 51.3 ng/ul salmon testes DNA, 50 uM zinc acetate, 200 nM TF, 25 C, 1 h; high values mean tight binding", "details": "protein: recombinant; tags: N-terminal polyhistidine and DsRed monomer fusion (pET32a); label: CyDye5-dUTP incorporated in the synthesized complementary strand; 3' TTTTT single-stranded linker to array surface; dsDNA, one strand shown", "procedure,_shortened": "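Binding signal here means per-feature fluorescence intensity in arbitrary units. The values were read on an Axon 4000B scanner after a custom Agilent array, double-stranded by primer extension with Cy5-dUTP, was incubated with 200 nM protein at 25 °C for 1 h in PBS with 2% BSA, salmon testes DNA and 50 µM zinc acetate, then washed. The proteins were transcription factors with an N-terminal polyhistidine tag and DsRed, expressed in E. coli BL21-CodonPlus and purified on Ni–NTA.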", "values": [
      {"sequence": "GGCGAGTGGCGGATTTGTTTTTGGTTTGTTTTTGAGTTTGCGGAGTCACCTAGTGCAG", "binding signal": "9060 fluorescence intensity (a.u.)"},
      {"sequence": "TGAACGATGCTTCGAATTTCTGACTTACACCAGCTTTGACCGGAGTCACCTAGTGCAG", "binding signal": "8260 fluorescence intensity (a.u.)"},
      {"sequence": "ATATATACTGTATTATCTTACTCCCTCCGTTCTATTTTGACGGAGTCACCTAGTGCAG", "binding signal": "8330 fluorescence intensity (a.u.)"},
      {"sequence": "CTGCTTATCACCATTATCTTTATGCTTGTGCTTATCAGCTCGGAGTCACCTAGTGCAG", "binding signal": "9530 fluorescence intensity (a.u.)"},
      {"sequence": "CTTGCCGCAAGACCACCGACCGTCGATTCCACGCCGCTCTCGGAGTCACCTAGTGCAG", "binding signal": "8870 fluorescence intensity (a.u.)"},
      {"sequence": "GCTCTGTCTGTGTGCGCCACGTACGTTATCGTCGACCGATCGGAGTCACCTAGTGCAG", "binding signal": "9330 fluorescence intensity (a.u.)"},
      {"sequence": "GGGTCGGTTTCTCTCTTGCTGTCTTCTCGATCGATCGATGCGGAGTCACCTAGTGCAG", "binding signal": "20200 fluorescence intensity (a.u.)"},
      {"sequence": "CGTCATATTTGCACCGTTTGGGTAGGGTGGGGATGGGGTGCGGAGTCACCTAGTGCAG", "binding signal": "18700 fluorescence intensity (a.u.)"},
      {"sequence": "CAACTAGGTTTTCGGCTACCGTTCTACACGGCCACACATGCGGAGTCACCTAGTGCAG", "binding signal": "8820 fluorescence intensity (a.u.)"},
      {"sequence": "ACGAATGGTTAAACATGTGAGAAAAAGTCAACAGCGTCATCGGAGTCACCTAGTGCAG", "binding signal": "9460 fluorescence intensity (a.u.)"},
      {"sequence": "GTTCTGTGATTTTTTGCTTACTTTTCTTGTTGTCTTGTTTCGGAGTCACCTAGTGCAG", "binding signal": "9870 fluorescence intensity (a.u.)"},
      {"sequence": "TACGCCCACTCTTTTTTTTCTATGAGTTCTGCTGACACGTCGGAGTCACCTAGTGCAG", "binding signal": "8240 fluorescence intensity (a.u.)"},
      {"sequence": "GACATTTTTTTTTCCTTCAACGCGCGAAACCTTGCATGTCCGGAGTCACCTAGTGCAG", "binding signal": "11700 fluorescence intensity (a.u.)"},
      {"sequence": "TCGCAATTTCTCCTCTAACCATGCAATTAGTTTTTCATTTCGGAGTCACCTAGTGCAG", "binding signal": "9490 fluorescence intensity (a.u.)"},
      {"sequence": "AGACAGTGATGACTTGGTCCACTTTTTTCTCCTGGGTTAGCGGAGTCACCTAGTGCAG", "binding signal": "8220 fluorescence intensity (a.u.)"},
      {"sequence": "CGCCCACCTATCTTACCACTGACACATTGGCCCCACCACCCGGAGTCACCTAGTGCAG", "binding signal": "8080 fluorescence intensity (a.u.)"},
      {"sequence": "TCGTGCGTGAGTTATGCTTCTTGAGTTTGCCCTTGCCTACCGGAGTCACCTAGTGCAG", "binding signal": "9390 fluorescence intensity (a.u.)"},
      {"sequence": "TCCCCGCGCCACCGCCGTCGCCGCCGCCCTCGACTACCGCCGGAGTCACCTAGTGCAG", "binding signal": "8840 fluorescence intensity (a.u.)"},
      {"sequence": "TCAGCAGCTGCTTCACACTCACACTGCCTCCTCTCTCTCTCGGAGTCACCTAGTGCAG", "binding signal": "8550 fluorescence intensity (a.u.)"},
      {"sequence": "TTATTACCCGTTGTTCTTTTGTTGCACGGTCGTGCCTTTCCGGAGTCACCTAGTGCAG", "binding signal": "9590 fluorescence intensity (a.u.)"},
      {"sequence": "CCCGTGTCTTGTGTGTTTCCATTCTCGCGAACCTTCCACACGGAGTCACCTAGTGCAG", "binding signal": "9910 ± 264 fluorescence intensity (a.u.)"},
      {"sequence": "GTTGGTGTTAGTCCCTGACATTGATTTTACGTTAGATATACGGAGTCACCTAGTGCAG", "binding signal": "9750 fluorescence intensity (a.u.)"},
      {"sequence": "GGGGTATTGTTACATTTTTTCCCCTCCCACAATGGTTTCTCGGAGTCACCTAGTGCAG", "binding signal": "8580 fluorescence intensity (a.u.)"},
      {"sequence": "TCCCCTGGTCTCTCGCTCTCTTCGCTCGCGGCGGCTTCTCCGGAGTCACCTAGTGCAG", "binding signal": "11200 fluorescence intensity (a.u.)"},
      {"sequence": "CTCCTCCGCTTCCAATCCCCAAATCCCCATCCGCTATATCCGGAGTCACCTAGTGCAG", "binding signal": "8540 fluorescence intensity (a.u.)"},
      {"sequence": "TTTTTTGGTTGGTTGCACTGATCGAGTGTGGTTACCTCTTCGGAGTCACCTAGTGCAG", "binding signal": "9410 fluorescence intensity (a.u.)"},
      {"sequence": "AGTCGATTAGTAGTTTCTTAAAGTAGTTCCTGATATTTTTCGGAGTCACCTAGTGCAG", "binding signal": "8270 fluorescence intensity (a.u.)"},
      {"sequence": "TGATTTTTGACCATTGCTTGGCTTCCTGGAGCTGTAATTGCGGAGTCACCTAGTGCAG", "binding signal": "9470 fluorescence intensity (a.u.)"},
      {"sequence": "GGAAAAAACTCTTCTATCTTTTACGGTAGTGCTACTCTCTCGGAGTCACCTAGTGCAG", "binding signal": "8680 fluorescence intensity (a.u.)"},
      {"sequence": "TTCCGTGTCCAATGTTTGACTGTCCGTCTTATATGAAATTCGGAGTCACCTAGTGCAG", "binding signal": "9530 fluorescence intensity (a.u.)"},
      {"sequence": "GTTTTTAGCCGCCGTAGTTTTTTAAGCTCCAGTTTCTTTTCGGAGTCACCTAGTGCAG", "binding signal": "8150 fluorescence intensity (a.u.)"},
      {"sequence": "CGTATCCGTGTCTCGATCTGGGCCCCACCTGTCAGTGTCTCGGAGTCACCTAGTGCAG", "binding signal": "12600 fluorescence intensity (a.u.)"},
      {"sequence": "TCTCTCTCTCTCTCTTTCTCTGACTTCTTCTTTCTCAATTCGGAGTCACCTAGTGCAG", "binding signal": "8700 fluorescence intensity (a.u.)"},
      {"sequence": "CTCTTATTCCCTCTCTCTCTCTCCCTGTTGCCCAAGGAACCGGAGTCACCTAGTGCAG", "binding signal": "10100 fluorescence intensity (a.u.)"},
      {"sequence": "GTCCAGGATGCCTGTTATACCTCATTGTGCTGCACTGTCACGGAGTCACCTAGTGCAG", "binding signal": "8120 fluorescence intensity (a.u.)"},
      {"sequence": "ACATAGCCAGTTGAGCTCACTTTGCAAATTAAGGTTTTTTCGGAGTCACCTAGTGCAG", "binding signal": "8500 fluorescence intensity (a.u.)"},
      {"sequence": "ATCTCGCCTCGCTCTAATAACACTTCATCTTCCGAGTTCCCGGAGTCACCTAGTGCAG", "binding signal": "8380 fluorescence intensity (a.u.)"},
      {"sequence": "TATAGGTGTGGTTTATTATTTTTATTAATTTTATAAATTTCGGAGTCACCTAGTGCAG", "binding signal": "10600 fluorescence intensity (a.u.)"},
      {"sequence": "TTCTCCTGTCATTCTGTCGAGCTTTGTATCACGTAATCCTCGGAGTCACCTAGTGCAG", "binding signal": "12000 fluorescence intensity (a.u.)"},
      {"sequence": "ATAGATGTTGCTTTGACTTTCTGCTTACAATATTTGACCACGGAGTCACCTAGTGCAG", "binding signal": "14300 fluorescence intensity (a.u.)"},
      {"sequence": "TCCGCCCGATCCGTCCGCCGCCTCCAGATCCGCGCCCATGCGGAGTCACCTAGTGCAG", "binding signal": "14000 fluorescence intensity (a.u.)"},
      {"sequence": "GAGGTGACGCTGCCGCCGGCGGTGGGCGGAGTGGGAGGGGCGGAGTCACCTAGTGCAG", "binding signal": "8390 fluorescence intensity (a.u.)"},
      {"sequence": "GAGATTCTACTAGCTATAGGTGATTCCCTCTGGTTTTTTCCGGAGTCACCTAGTGCAG", "binding signal": "8140 fluorescence intensity (a.u.)"},
      {"sequence": "ATCAAACTGTTATTTCTGTATTTTTCCTGTGTTTTACAATCGGAGTCACCTAGTGCAG", "binding signal": "8920 fluorescence intensity (a.u.)"},
      {"sequence": "GCTGCCAACCCGAGTCACGAGACCTCATCTCTCCTCAATCCGGAGTCACCTAGTGCAG", "binding signal": "10400 fluorescence intensity (a.u.)"},
      {"sequence": "CAGTTTCATCCCTAGGTGGTGGTGGCGGTGCGTGGAGTGACGGAGTCACCTAGTGCAG", "binding signal": "16600 fluorescence intensity (a.u.)"},
      {"sequence": "TGTTATGCAGTTGATTCTCTTTCTAGCTGTCTAAATTTCTCGGAGTCACCTAGTGCAG", "binding signal": "8910 fluorescence intensity (a.u.)"},
      {"sequence": "GTAAATGACAAATGGGTCCCACACATATTTTTTTTATTTCCGGAGTCACCTAGTGCAG", "binding signal": "8060 fluorescence intensity (a.u.)"},
      {"sequence": "TGCCCTCGTCATTTTTGCGCGACGGTTCAGTGATATCGACCGGAGTCACCTAGTGCAG", "binding signal": "8610 fluorescence intensity (a.u.)"},
      {"sequence": "CCACTGCCTGTCGCTGCCATTCTTGTCGCCATCGCATCGCCGGAGTCACCTAGTGCAG", "binding signal": "9600 fluorescence intensity (a.u.)"},
      {"sequence": "CATGTCACCGGTCAGCCTCATCGCCGCTCCCAAAAAAGACCGGAGTCACCTAGTGCAG", "binding signal": "8280 fluorescence intensity (a.u.)"},
      {"sequence": "CTATAAATACACGACGTCTCTCCGCTGGCTTACACACAACCGGAGTCACCTAGTGCAG", "binding signal": "10100 fluorescence intensity (a.u.)"},
      {"sequence": "AATATCTTGCAGCTATTTCTTTTTCTATTACATTGAACCCCGGAGTCACCTAGTGCAG", "binding signal": "8820 fluorescence intensity (a.u.)"},
      {"sequence": "TTTTAGCCTATGTAATGTGTGCAAGTTTTAGCCTGATTTCCGGAGTCACCTAGTGCAG", "binding signal": "8960 fluorescence intensity (a.u.)"}
    ]}
  ]
}
